# Experimental data published in PubChem BioAssay AID2662 (National Center for Advancing Translational Sciences (NCATS), 2010).
# Sequences of proteins named here, by UniProt entry; tags and fusion partners are left off.
# UniProt Q03164, whole entry, looked up: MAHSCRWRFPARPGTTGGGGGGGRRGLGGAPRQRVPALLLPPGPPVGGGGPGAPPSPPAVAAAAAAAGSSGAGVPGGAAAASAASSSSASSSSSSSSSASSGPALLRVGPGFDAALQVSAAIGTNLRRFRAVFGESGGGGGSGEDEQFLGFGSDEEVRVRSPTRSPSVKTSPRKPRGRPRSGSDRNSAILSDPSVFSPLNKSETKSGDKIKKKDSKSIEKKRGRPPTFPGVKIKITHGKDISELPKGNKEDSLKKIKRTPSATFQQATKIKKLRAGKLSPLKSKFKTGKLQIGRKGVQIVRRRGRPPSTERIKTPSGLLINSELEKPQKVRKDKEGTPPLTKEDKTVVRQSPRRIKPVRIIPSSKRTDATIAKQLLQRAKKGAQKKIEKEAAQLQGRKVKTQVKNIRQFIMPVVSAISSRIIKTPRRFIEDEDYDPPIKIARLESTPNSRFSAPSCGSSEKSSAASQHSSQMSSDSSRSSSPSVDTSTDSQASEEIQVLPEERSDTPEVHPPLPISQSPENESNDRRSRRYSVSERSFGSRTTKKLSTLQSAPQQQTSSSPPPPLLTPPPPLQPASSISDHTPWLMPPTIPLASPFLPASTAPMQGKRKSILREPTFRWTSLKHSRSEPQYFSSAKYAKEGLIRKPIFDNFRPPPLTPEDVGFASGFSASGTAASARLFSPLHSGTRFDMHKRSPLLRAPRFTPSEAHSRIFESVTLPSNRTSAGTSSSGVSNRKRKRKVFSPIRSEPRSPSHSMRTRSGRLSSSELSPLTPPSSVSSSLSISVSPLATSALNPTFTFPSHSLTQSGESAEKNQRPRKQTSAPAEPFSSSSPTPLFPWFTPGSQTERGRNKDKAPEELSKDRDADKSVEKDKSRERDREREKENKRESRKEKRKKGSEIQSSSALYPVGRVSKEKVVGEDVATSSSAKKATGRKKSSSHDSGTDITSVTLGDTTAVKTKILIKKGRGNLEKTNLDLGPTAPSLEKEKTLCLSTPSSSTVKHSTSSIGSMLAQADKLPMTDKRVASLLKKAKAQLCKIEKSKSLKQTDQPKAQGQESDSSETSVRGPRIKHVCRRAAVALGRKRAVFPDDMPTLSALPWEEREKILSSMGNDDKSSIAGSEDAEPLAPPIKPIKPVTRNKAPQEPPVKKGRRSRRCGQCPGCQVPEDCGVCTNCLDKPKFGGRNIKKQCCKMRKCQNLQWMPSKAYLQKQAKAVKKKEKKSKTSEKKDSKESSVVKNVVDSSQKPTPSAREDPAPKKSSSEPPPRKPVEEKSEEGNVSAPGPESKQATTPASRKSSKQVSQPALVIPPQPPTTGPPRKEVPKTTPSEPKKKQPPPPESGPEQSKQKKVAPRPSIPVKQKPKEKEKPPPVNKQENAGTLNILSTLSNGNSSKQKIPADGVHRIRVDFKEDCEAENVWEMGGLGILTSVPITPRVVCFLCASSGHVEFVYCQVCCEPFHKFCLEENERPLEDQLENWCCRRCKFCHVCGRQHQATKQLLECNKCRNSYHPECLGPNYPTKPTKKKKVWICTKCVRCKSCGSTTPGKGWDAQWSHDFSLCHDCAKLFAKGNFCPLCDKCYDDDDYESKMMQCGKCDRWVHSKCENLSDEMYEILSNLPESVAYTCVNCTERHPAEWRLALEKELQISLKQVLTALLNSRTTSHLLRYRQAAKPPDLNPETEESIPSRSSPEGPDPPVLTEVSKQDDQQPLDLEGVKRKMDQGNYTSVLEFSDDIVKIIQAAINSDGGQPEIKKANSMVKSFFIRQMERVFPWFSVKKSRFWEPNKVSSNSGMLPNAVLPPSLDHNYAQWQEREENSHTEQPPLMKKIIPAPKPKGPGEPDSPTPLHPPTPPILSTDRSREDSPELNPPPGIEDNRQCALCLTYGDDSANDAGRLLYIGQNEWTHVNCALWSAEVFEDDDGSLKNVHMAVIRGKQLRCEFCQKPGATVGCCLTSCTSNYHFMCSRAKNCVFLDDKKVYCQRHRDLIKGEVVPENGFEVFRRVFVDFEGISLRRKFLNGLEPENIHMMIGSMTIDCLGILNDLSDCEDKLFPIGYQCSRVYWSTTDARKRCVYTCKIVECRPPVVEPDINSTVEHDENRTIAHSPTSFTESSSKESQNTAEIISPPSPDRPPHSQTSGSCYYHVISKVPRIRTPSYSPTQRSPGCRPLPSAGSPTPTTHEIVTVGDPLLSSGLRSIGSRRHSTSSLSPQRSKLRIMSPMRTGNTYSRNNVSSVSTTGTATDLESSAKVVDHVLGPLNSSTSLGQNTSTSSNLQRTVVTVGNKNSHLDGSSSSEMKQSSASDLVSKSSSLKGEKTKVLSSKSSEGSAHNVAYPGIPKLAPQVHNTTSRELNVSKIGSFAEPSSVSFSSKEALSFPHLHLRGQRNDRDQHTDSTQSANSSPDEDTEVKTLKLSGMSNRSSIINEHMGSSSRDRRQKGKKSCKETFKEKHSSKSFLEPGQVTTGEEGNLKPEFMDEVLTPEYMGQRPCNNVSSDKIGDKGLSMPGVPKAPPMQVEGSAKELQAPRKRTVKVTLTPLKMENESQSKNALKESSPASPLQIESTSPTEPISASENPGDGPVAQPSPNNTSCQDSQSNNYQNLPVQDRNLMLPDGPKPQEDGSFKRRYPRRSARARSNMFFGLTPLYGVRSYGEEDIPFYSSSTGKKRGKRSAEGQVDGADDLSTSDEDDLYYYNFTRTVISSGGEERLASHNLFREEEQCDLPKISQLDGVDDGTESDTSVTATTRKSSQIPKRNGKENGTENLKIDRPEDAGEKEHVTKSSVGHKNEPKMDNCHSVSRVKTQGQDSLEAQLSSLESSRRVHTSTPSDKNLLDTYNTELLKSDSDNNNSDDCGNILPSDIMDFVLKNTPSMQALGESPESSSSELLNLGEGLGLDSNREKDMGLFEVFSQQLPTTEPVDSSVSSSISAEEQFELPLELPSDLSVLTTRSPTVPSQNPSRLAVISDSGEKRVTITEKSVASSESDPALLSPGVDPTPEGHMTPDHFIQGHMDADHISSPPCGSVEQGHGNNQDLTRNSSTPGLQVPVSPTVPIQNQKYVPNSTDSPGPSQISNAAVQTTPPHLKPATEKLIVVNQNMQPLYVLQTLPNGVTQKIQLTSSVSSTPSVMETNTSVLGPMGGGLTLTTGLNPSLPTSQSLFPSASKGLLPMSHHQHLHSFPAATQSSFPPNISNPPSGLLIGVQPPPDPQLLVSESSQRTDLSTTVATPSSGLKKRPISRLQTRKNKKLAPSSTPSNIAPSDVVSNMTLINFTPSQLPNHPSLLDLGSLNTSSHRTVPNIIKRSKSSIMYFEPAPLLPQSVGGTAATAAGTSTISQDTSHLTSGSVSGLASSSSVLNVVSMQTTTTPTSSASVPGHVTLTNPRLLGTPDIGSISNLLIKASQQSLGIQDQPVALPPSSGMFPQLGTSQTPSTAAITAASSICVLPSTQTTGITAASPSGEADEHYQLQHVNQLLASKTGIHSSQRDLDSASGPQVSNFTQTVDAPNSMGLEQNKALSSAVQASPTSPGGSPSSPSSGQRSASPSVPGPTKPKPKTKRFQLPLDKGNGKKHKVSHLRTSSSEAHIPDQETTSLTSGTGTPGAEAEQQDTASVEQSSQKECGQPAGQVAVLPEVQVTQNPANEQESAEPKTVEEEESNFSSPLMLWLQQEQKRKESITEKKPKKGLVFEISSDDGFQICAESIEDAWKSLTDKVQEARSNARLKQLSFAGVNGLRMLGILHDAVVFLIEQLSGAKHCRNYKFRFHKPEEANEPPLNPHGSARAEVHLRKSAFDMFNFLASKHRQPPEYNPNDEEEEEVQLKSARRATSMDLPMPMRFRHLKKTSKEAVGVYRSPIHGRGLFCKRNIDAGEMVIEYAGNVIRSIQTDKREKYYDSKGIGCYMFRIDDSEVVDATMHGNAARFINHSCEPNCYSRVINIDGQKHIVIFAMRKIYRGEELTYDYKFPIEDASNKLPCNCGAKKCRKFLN
# Screen size: about 290,000 compounds; about 110 (0.038%) were called active. Inconclusive means that the source gave no clear call. Such entries were picked first, then a sample of the others. Calls come from the whole dose curve; as a rule, active = well fitted inhibition curve with a large enough effect in the polarisation, with a control signal flat (not every such curve was filed as active); inconclusive = small, poorly fitted or top-dose-only effect, or effect the other way, or a change in a side signal; inactive = no such curve, though single readings can be large or run the other way; the % refers to the polarisation. Where the call is inconclusive, the potency comes from a doubtful curve fit. A note “side channel” means that the fit belongs to a control or component signal, not to the main read-out.
# Target: Histone-lysine N-methyltransferase 2A (Homo sapiens) (UniProt Q03164)
# Experiment: qHTS Fluorescence Polarization Assay for Inhibitors of MLL CXXC domain - DNA interaction
# Conditions: MLL-CXXC / FITC-HOXA9 DNA fluorescence polarization; series mostly up to 115 µM
# Summary of the method: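 Steps: dispense CXXC domain solution (7 uM) → pin compounds or unlabeled HOX-A9 DNA control → 5 min ambient → add FLSN-HOX-A9 solution (50 nM) → spin → 30 min ambient → fluorescence polarization. Tris pH 7.5/NaCl/DTT/BSA buffer.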
# Potency is the fitted concentration of half-maximal effect.
row,SMILES,Potency
1,N/C(=N\OC(=O)CC1CCCCC1)c1ccc([N+](=O)[O-])cc1,"inconclusive: 14.1 µM [fluorescent, side channel, full curve]"
2,O=C(Cn1nc(-c2ccco2)ccc1=O)Nc1ccc(Cl)c(Cl)c1,"inconclusive: 10 µM [fluorescent, side channel, full curve]"
3,COc1cccc(CC2(CO)CCCN(Cc3cc(F)ccc3-n3cccn3)C2)c1 (stereo not drawn),"inconclusive: 1 µM [quencher, side channel, full curve, poor fit]"
4,O=C(CSc1ccc(Br)cc1)N1CCN(S(=O)(=O)c2ccccc2)CC1,"inconclusive: 8.91 µM [quencher, side channel, single point]"
5,CCOCCCNc1nc2c(C)cccn2c(=O)c1/C=C1\SC(=S)N(CC(C)C)C1=O,"inconclusive: 56.2 µM [fluorescent, side channel, partial curve, poor fit]"
6,Cc1ccc(N2C(=O)CN(Cc3sccc3C)C2=S)cc1C,"inconclusive: 35.5 µM [quencher, side channel, single point]"
7,COc1ccc(C(=O)NC(NC(=O)c2ccc(OC)cc2)c2ccccc2F)cc1,"inconclusive: 35.5 µM [inhibitor, single point]"
8,CC1C(=O)N(Cc2ccc([N+](=O)[O-])cc2)c2ccccc2N1C(=O)c1c(F)cccc1F (stereo not drawn),"inconclusive: 70.8 µM [fluorescent, side channel, single point]"
9,CSC1=NSC2=NC(=O)/C(=C\c3coc4ccccc4c3=O)C(=N)N12,"inconclusive: 15.8 µM [fluorescent, side channel, full curve]"
10,CCOC(=O)/C(=N/Nc1ccc(Cl)cc1)S(=O)(=O)c1ccc(Cl)cc1,"inconclusive: 1 µM [fluorescent, side channel, partial curve, poor fit]"
11,Cc1c2ccccc2nc2c(F)c(NC(C)C)c(F)c(F)c12,"inconclusive: 35.5 µM [fluorescent, side channel, partial curve]"
12,Cc1c(NC(=O)OCc2ccccc2)c(=O)n(-c2ccccc2)n1C,inactive
13,CCn1ncc(Br)c1C(=O)Nc1ccc(C(C)C)cc1,"inconclusive: 70.8 µM [fluorescent, side channel, single point]"
14,COc1ccc(NC(=O)CCN2C(=O)c3ccc([N+](=O)[O-])cc3C2=O)c(OC)c1,"inconclusive: 1.58 µM [fluorescent, side channel, full curve]"
15,Cc1ccc(S(=O)(=O)N(C)c2ccc(OCc3cccc(C)c3)cc2)cc1,inactive
16,COc1cc(/C=C/C(=O)c2ccc3c(c2)OCO3)cc(Cl)c1O,"inconclusive: 14.1 µM [fluorescent, side channel, full curve]"
17,CCN(CC)c1ccc(/C=C/c2cc(-c3ccccc3)c3ccccc3n2)cc1,"inconclusive: 15.8 µM [fluorescent, side channel, partial curve]"
18,O=C1CN(c2nc(-c3ccccc3)c3ccccc3n2)c2ccccc2N1,"inconclusive: 31.6 µM [fluorescent, side channel, single point]"
19,Cc1nn(S(=O)(=O)c2cccs2)c(C)c1Sc1ccccc1,"inconclusive: 11.2 µM [quencher, side channel, full curve]"
20,COc1ccccc1OCCn1cc(C=O)c2ccccc21,inactive

# Of the compounds above, three contain four or more nitrogen atoms:
row,SMILES,Potency
5,CCOCCCNc1nc2c(C)cccn2c(=O)c1/C=C1\SC(=S)N(CC(C)C)C1=O,"inconclusive: 56.2 µM [fluorescent, side channel, partial curve, poor fit]"
9,CSC1=NSC2=NC(=O)/C(=C\c3coc4ccccc4c3=O)C(=N)N12,"inconclusive: 15.8 µM [fluorescent, side channel, full curve]"
18,O=C1CN(c2nc(-c3ccccc3)c3ccccc3n2)c2ccccc2N1,"inconclusive: 31.6 µM [fluorescent, side channel, single point]"

# 2 entries from above in another layout:
row	SMILES	Potency
10	CCOC(=O)/C(=N/Nc1ccc(Cl)cc1)S(=O)(=O)c1ccc(Cl)cc1	inconclusive: 1 µM [fluorescent, side channel, partial curve, poor fit]
15	Cc1ccc(S(=O)(=O)N(C)c2ccc(OCc3cccc(C)c3)cc2)cc1	inactive

# Later entries:

row,SMILES,Potency
1,COc1cc(C(=S)N2CCOCC2)ccc1OC(=O)c1ccccc1[N+](=O)[O-],"inconclusive: 25.1 µM [quencher, side channel, partial curve]"
2,O=C(c1nc2ccc(Cl)cn2c1CN1CCCC(CO)C1)N1CCc2ccccc2C1 (stereo not drawn),"inconclusive: 14.1 µM [fluorescent, side channel, single point]"
3,CCOC(=O)N1CCN(Cc2nc3c(c(=O)n(C)c(=O)n3C)n2CCC(C)C)CC1,"inconclusive: 12.6 µM [quencher, side channel, full curve, poor fit]"
4,CCN1CCCC1CNC(=O)C(=O)NC(C)c1ccccc1 (stereo not drawn),"inconclusive: 1.12 µM [quencher, side channel, full curve]"
5,Cc1nn2cc(-c3cccc(Cl)c3)cnc2c1Br,"inconclusive: 44.7 µM [fluorescent, side channel, single point]"
6,O=C(O)COc1ccc(C(=O)c2cccs2)c(Cl)c1Cl,inactive
7,COc1cccc(N/C(SCc2ccccc2Cl)=C(/C#N)C(=O)NCc2cccs2)c1,"inconclusive: 44.7 µM [inhibitor, single point]"
8,COc1ccc(OC)c(NC(=O)CSc2nnc(-c3ccncc3)s2)c1,"inconclusive: 7.08 µM [fluorescent, side channel, full curve]"
9,Cc1cccc(C)c1NC(=O)CSc1nc(C)c(CC(=O)c2ccc(Br)cc2)c(C)c1C#N,"inconclusive: 35.5 µM [fluorescent, side channel, single point]"
10,CC1CCCN(C(=O)CCCC(=O)N2CCCC(C)C2)C1 (stereo not drawn),inactive
11,Cc1nn(CC(=O)NCCc2ccc(Cl)cc2)c(=O)c2cccn12,"inconclusive: 35.5 µM [fluorescent, side channel, single point]"
12,Nc1c2c(nc3ccc(Br)cc13)N(C1CCCCC1)CC2,"inconclusive: 70.8 µM [quencher, single point]"
13,CC(Sc1nnc(Nc2ccccc2)s1)C(=O)Nc1nc(-c2ccccc2)cs1 (stereo not drawn),"inconclusive: 70.8 µM [fluorescent, side channel, single point]"
14,O=C(N/N=C/c1coc2ccc(Cl)cc2c1=O)c1ccc(O)cc1,"inconclusive: 15.8 µM [fluorescent, side channel, partial curve]"
15,COc1ccc([N+](=O)[O-])c(OC)c1C(=O)NC(=O)Nc1c(C)cccc1C,"inconclusive: 63.1 µM [fluorescent, side channel, single point]"
16,O=C(O)c1c(C(=O)O)c(-c2ccc(F)cc2)n2c1CCC2,"inconclusive: 70.8 µM [fluorescent, side channel, single point]"
17,O=C(COc1cccc2cccnc12)N/N=C/c1ccccc1O,inactive
18,Cc1c(N=Cc2c(O)n(C)c(=O)c3ccccc23)c(=O)n(-c2ccccc2)n1C,"inconclusive: 44.7 µM [fluorescent, side channel, single point]"
19,CCS(=O)(=O)N1CCCC(C(=O)NC2CCCC2)C1 (stereo not drawn),inactive
20,O=C(C1=C[C@H](C2CC2)C[C@H](OCCCCO)O1)N1CCN(Cc2ccccc2)CC1,"inconclusive: 31.6 µM [inhibitor, partial curve]"

row,SMILES,Potency
1,Cc1cccc(/C=C2/Sc3ccc(C(=O)NCCN4CCCC4)cc3NC2=O)c1,"inconclusive: 28.2 µM [quencher, side channel, partial curve]"
2,Cc1ccc(O)c(C(=O)c2cc(C#N)c3nc4ccccc4n3c2)c1,"inconclusive: 31.6 µM [fluorescent, side channel, partial curve]"
3,CCOC(=O)CN(C(=O)CSc1nnc(CNc2ccc(C)cc2C)n1CC)c1ccccc1,"inconclusive: 31.6 µM [inhibitor, partial curve]"
4,COc1ccc(NC(=O)CSc2ccc(-c3cccnc3)nn2)cc1,"inconclusive: 15.8 µM [fluorescent, side channel, single point]"
5,CCCSc1nc2sc3c(c2c(=O)[nH]1)CCN(Cc1ccccc1)C3,"inconclusive: 35.5 µM [fluorescent, side channel, partial curve]"
6,CC1(C)O[C@@H]2C[C@H]3[C@@H]4CCC5=CC(=O)C=C[C@]5(C)[C@H]4C(O)C[C@]3(C)[C@]2(C(=O)CO)O1 (stereo partly drawn),inactive
7,COc1ccc(C2C(C(=O)c3ccco3)=C(O)C(=O)N2CC2CCCO2)c(OC)c1 (stereo not drawn),"inconclusive: 100 µM [fluorescent, side channel, partial curve, poor fit]"
8,CCN1CCCC1CNS(=O)(=O)c1c(C)cc(C)cc1C (stereo not drawn),"inconclusive: 63.1 µM [inhibitor, single point]"
9,Fc1ccc(CN2C3=NCCN3c3ccccc32)cc1,"inconclusive: 10 µM [inhibitor, single point]"
10,CCOC(=O)Cc1nnc(NC(=O)c2ccccc2OCC)s1,inactive
11,Cc1ccc(S(=O)(=O)c2cc3c(=O)n4ccccc4nc3n(CC3CCCO3)c2=N)cc1C (stereo not drawn),"inconclusive: 10 µM [fluorescent, side channel, partial curve]"
12,O=C(NCCCn1ccnc1)c1ccc(-c2ccccc2)cc1,inactive
13,Cc1ccc(NC(=O)Cn2nnc(-c3ccccc3NC(=O)c3cccs3)n2)cc1,"inconclusive: 63.1 µM [fluorescent, side channel, single point]"
14,CCN(CC)CCN(C(=O)c1ccc2c(c1)OCCO2)c1nc2cc3c(cc2s1)OCO3,"inconclusive: 8.91 µM [fluorescent, side channel, single point]"
15,O=C(Nc1cccc(F)c1)c1ccc(S(=O)(=O)N2CCCCC2)cc1,"inconclusive: 14.1 µM [fluorescent, side channel, single point]"
16,Nc1cc2c3c(cccc3c1)C(=O)N(CCN1CCCC1)C2=O,active: 7.94 µM
17,Cc1ccc(/C=C2/NC(=O)N(Cc3ccccc3)C2=O)o1,"inconclusive: 56.2 µM [fluorescent, side channel, single point]"
18,O=[N+]([O-])c1cc(F)c2cccnc2c1O,inactive
